This continues a long series; more values of the same kind are listed elsewhere.

By UniProt entry, the sequences of proteins in these tests, tags left out.
UniProt Q61188, whole entry: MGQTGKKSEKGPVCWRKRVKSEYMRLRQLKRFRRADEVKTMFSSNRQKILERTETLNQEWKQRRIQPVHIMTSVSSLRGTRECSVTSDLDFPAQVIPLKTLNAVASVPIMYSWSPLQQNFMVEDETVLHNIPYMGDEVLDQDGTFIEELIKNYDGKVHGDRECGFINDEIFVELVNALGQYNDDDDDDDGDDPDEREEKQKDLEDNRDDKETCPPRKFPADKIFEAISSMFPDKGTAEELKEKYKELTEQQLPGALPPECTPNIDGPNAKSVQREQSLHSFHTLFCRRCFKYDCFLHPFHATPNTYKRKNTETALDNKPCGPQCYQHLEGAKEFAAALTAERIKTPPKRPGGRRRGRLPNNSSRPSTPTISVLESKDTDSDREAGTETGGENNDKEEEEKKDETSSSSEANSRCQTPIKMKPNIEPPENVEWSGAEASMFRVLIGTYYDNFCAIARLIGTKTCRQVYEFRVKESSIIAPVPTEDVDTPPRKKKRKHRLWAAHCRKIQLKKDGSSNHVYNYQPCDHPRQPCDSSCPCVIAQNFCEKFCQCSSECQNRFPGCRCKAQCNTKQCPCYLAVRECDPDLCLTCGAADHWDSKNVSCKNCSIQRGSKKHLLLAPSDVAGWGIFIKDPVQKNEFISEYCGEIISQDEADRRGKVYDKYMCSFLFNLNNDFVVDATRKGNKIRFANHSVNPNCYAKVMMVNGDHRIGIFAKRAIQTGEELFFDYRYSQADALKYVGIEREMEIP

Common to all, as to type: cell-based
Experiment [1] deals with T1, RNA polymerase II (Mus musculus) (UniProt P08775+Q8CFI7+P97760+A0A3Q4L2S8+Q80UW8+P61219+P62488+Q923G2+P60898+O08740+Q63871+P62876). Description: Inhibition of RNA polymerase II in mouse B16-F1 migrating cells assessed as fold change in Ankrd49-RNA stability at 0.1 mM measured by ChIP-seq analysis relative to control cells.
In experiment [2] the target is T1, RNA polymerase II (Mus musculus). Description: Inhibition of RNA polymerase II in mouse B16-F1 migrating cells assessed as fold change in Yme1l1-RNA stability at 0.1 mM measured by ChIP-seq analysis relative to control cells.
For experiment [3] the target is unchanged. Description: Inhibition of RNA polymerase II in mouse B16-F1 migrating cells assessed as fold change in Rpgrip1l-RNA stability at 0.1 mM measured by ChIP-seq analysis relative to control cells.
For experiment [4] the target is unchanged. Description: Inhibition of RNA polymerase II in mouse B16-F1 migrating cells assessed as fold change in Tank-RNA stability at 0.1 mM measured by ChIP-seq analysis relative to control cells.
The target is the same in experiment [5]. Description: Inhibition of RNA polymerase II in mouse B16-F1 migrating cells assessed as fold change in Gm44250-RNA stability at 0.1 mM measured by ChIP-seq analysis relative to control cells.
Experiment [6] has the same target. Description: Inhibition of RNA polymerase II in mouse B16-F1 migrating cells assessed as fold change in Impad1-RNA stability at 0.1 mM measured by ChIP-seq analysis relative to control cells.
For experiment [7] the target is unchanged. Description: Inhibition of RNA polymerase II in mouse B16-F1 migrating cells assessed as fold change in Ppp4r3b-RNA stability at 0.1 mM measured by ChIP-seq analysis relative to control cells.
For experiment [8] the target is unchanged. Description: Inhibition of RNA polymerase II in mouse B16-F1 migrating cells assessed as fold change in Rock2-RNA stability at 0.1 mM measured by ChIP-seq analysis relative to control cells.
The target is the same in experiment [9]. Description: Inhibition of RNA polymerase II in mouse B16-F1 migrating cells assessed as fold change in Trmt112-RNA stability at 0.1 mM measured by ChIP-seq analysis relative to control cells.
For experiment [10] the target is unchanged. Description: Inhibition of RNA polymerase II in mouse B16-F1 migrating cells assessed as fold change in Smarca5-RNA stability at 0.1 mM measured by ChIP-seq analysis relative to control cells.
Experiment [11] shares this target. Description: Inhibition of RNA polymerase II in mouse B16-F1 migrating cells assessed as fold change in Zfr-RNA stability at 0.1 mM measured by ChIP-seq analysis relative to control cells.
For experiment [12] the target is unchanged. Description: Inhibition of RNA polymerase II in mouse B16-F1 migrating cells assessed as fold change in Vegfb-RNA stability at 0.1 mM measured by ChIP-seq analysis relative to control cells.
Experiment [13] has the same target. Description: Inhibition of RNA polymerase II in mouse B16-F1 migrating cells assessed as fold change in Canx-RNA stability at 0.1 mM measured by ChIP-seq analysis relative to control cells.
For experiment [14] the target is unchanged. Description: Inhibition of RNA polymerase II in mouse B16-F1 migrating cells assessed as fold change in Bola2-RNA stability at 0.1 mM measured by ChIP-seq analysis relative to control cells.
Experiment [15] shares this target. Description: Inhibition of RNA polymerase II in mouse B16-F1 migrating cells assessed as fold change in Ndufa11-RNA stability at 0.1 mM measured by ChIP-seq analysis relative to control cells.
Experiment [16] has the same target. Description: Inhibition of RNA polymerase II in mouse B16-F1 migrating cells assessed as fold change in Napa-RNA stability at 0.1 mM measured by ChIP-seq analysis relative to control cells.
For experiment [17] the target is unchanged. Description: Inhibition of RNA polymerase II in mouse B16-F1 migrating cells assessed as fold change in Fmnl2-RNA stability at 0.1 mM measured by ChIP-seq analysis relative to control cells.
For experiment [18] the target is unchanged. Description: Inhibition of RNA polymerase II in mouse B16-F1 migrating cells assessed as fold change in Rpsa-RNA stability at 0.1 mM measured by ChIP-seq analysis relative to control cells.
The target is the same in experiment [19]. Description: Inhibition of RNA polymerase II in mouse B16-F1 migrating cells assessed as fold change in Esf1-RNA stability at 0.1 mM measured by ChIP-seq analysis relative to control cells.
For experiment [20] the target is unchanged. Description: Inhibition of RNA polymerase II in mouse B16-F1 migrating cells assessed as fold change in Top1-RNA stability at 0.1 mM measured by ChIP-seq analysis relative to control cells.
In experiment [21] the target is Histone-lysine N-methyltransferase EZH2 (Mus musculus) (UniProt Q61188). Description: Inhibition of EZH2 in mouse B16-F1 migrating cells assessed as fold change in H3K27me3-buffered regulated Six4-mRNA expression at 3 uM measured by ChIP-seq analysis relative to control cells.
The target is the same in experiment [22]. Description: Inhibition of EZH2 in mouse B16-F1 migrating cells assessed as fold change in H3K27me3-buffered regulated BC037034-mRNA expression at 3 uM measured by ChIP-seq analysis relative to control cells.
Experiment [23] shares this target. Description: Inhibition of EZH2 in mouse B16-F1 migrating cells assessed as fold change in H3K27me3-buffered regulated Etaa1-mRNA expression at 3 uM measured by ChIP-seq analysis relative to control cells.
Experiment [24] has the same target. Description: Inhibition of EZH2 in mouse B16-F1 migrating cells assessed as fold change in H3K27me3-buffered regulated Sema6a-mRNA expression at 3 uM measured by ChIP-seq analysis relative to control cells.
Experiment [25] has the same target. Description: Inhibition of EZH2 in mouse B16-F1 migrating cells assessed as fold change in H3K27me3-buffered regulated Ube2t-mRNA expression at 3 uM measured by ChIP-seq analysis relative to control cells.
Experiment [26] shares this target. Description: Inhibition of EZH2 in mouse B16-F1 migrating cells assessed as fold change in H3K27me3-buffered regulated Filip1l-mRNA expression at 3 uM measured by ChIP-seq analysis relative to control cells.
Experiment [27] shares this target. Description: Inhibition of EZH2 in mouse B16-F1 migrating cells assessed as fold change in H3K27me3-buffered regulated Arid5b-mRNA expression at 3 uM measured by ChIP-seq analysis relative to control cells.
For experiment [28] the target is unchanged. Description: Inhibition of EZH2 in mouse B16-F1 migrating cells assessed as fold change in H3K27me3-buffered regulated Espl1-mRNA expression at 3 uM measured by ChIP-seq analysis relative to control cells.
Experiment [29] shares this target. Description: Inhibition of EZH2 in mouse B16-F1 migrating cells assessed as fold change in H3K27me3-independent regulated Phldb3-mRNA expression at 3 uM measured by ChIP-seq analysis relative to control cells.
Experiment [30] shares this target. Description: Inhibition of EZH2 in mouse B16-F1 migrating cells assessed as fold change in H3K27me3-buffered regulated Csrp2-mRNA expression at 3 uM measured by ChIP-seq analysis relative to control cells.

As to `OC[C@H]1O[C@@H](n2cnc3cc(Cl)c(Cl)cc32)[C@H](O)[C@@H]1O`, the log2FC is -0.87 in experiment [1]; -0.88 in experiment [2]; -0.46 in [3]; -0.67 in [4]; -0.93 in experiment [5]; -0.54 in experiment [6]. Moreover, the log2FC was -0.52 in [7]; -0.73 in [8]; 0.51 in experiment [9]; -0.92 in [10]; -0.73 in experiment [11]; 0.43 in experiment [12]. Also, the log2FC in experiment [13] was -0.71; in experiment [14], 0.47; in experiment [15], 0.52; in experiment [16], 0.38; in experiment [17], -0.53; in experiment [18], 0.46. Further, the log2FC in experiment [19] was -1.07; in experiment [20], -0.64.
In the case of `CCCc1cc(C)[nH]c(=O)c1CNC(=O)c1cc(-c2ccnc(N3CCN(C)CC3)c2)cc2c1cnn2C(C)C`, the log2FC was -0.74 in experiment [21]; -0.52 in experiment [22]; -0.4 in experiment [23]; -0.47 in experiment [24]; -0.51 in experiment [25]; -0.78 in [26]. Also, the log2FC in experiment [27] was -0.54; in [28], -0.4; in [29], 0.63; in [30], 0.38.

The values are drawn from ChEMBL document CHEMBL5674883, “The Heterochromatin Landscape in Migrating Cells and the Importance of H3K27me3 for Associated Transcriptome Alterations” (Cells, 2018).
